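A cell-based FRET test of anthrax lethal toxin entry, tracked through the 460 nm emission signal; the cell line is not named here. Each compound was tested as a concentration series from about 0.0005 to 40 µM. The number is the fitted AC50 of the 460 nm signal alone; lower values mean a more potent effect. A falling signal goes with compounds filed as inhibitors or cytotoxic, a rising one with activators or fluorescent compounds (inferred from the filed classes).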

Values are in µM. Common to all entries: measured here: 460 nm channel. This is a side read-out of the assay, for part of the compounds, not drawn at random. Potencies fitted to partial, single-point or poorly fitting curves are rough. The first word of each remark tells which way the curve ran; it can be opposite to the aim of the assay.

- CCOC(=O)c1oc2cc(O)c(CC)cc2c(=O)c1-c1ccc2c(c1)OCCO2 : AC50 0.7943 µM (falling, full curve)
- CCOC(=O)c1nc(S(C)(=O)=O)ncc1Cl : AC50 10 µM (falling, partial curve)
- Cc1cc(C2(c3cc(C)c(O)cc3C)OS(=O)(=O)c3ccccc32)c(C)cc1O : AC50 31.62 µM (falling, single point)
- O=Nc1c(-c2c(O)[nH]c3ccccc23)[nH]c2ccccc12 : AC50 25.12 µM (falling, partial curve)
- NC(=O)c1ccc(-c2ncc(-c3ccccc3)o2)cc1 : AC50 0.5012 µM (rising, single point)
- COc1ccccc1OCCn1cc(C(=O)c2ccco2)c2ccccc21 : AC50 7.943 µM (falling, partial curve)
- COc1cc(NS(=O)(=O)c2ccc(N)cc2)nc(OC)n1 : AC50 0.1995 µM (falling, full curve, poor fit)
- CC12CC(NC(=O)N1CCc1ccccc1)c1ccccc1O2 (stereo not shown) : AC50 5.012 µM (rising, single point)
- O=c1c(-c2ccccc2)nc2cncnc2n1Cc1ccccc1 : AC50 31.62 µM (rising, single point)
- COc1ccc(S(=O)(=O)N2CCN(c3ccc4nnc(-c5ccc(F)cc5)n4n3)CC2)cc1 : AC50 10 µM (falling, single point)
- COc1cccc(Nc2ncc3nc(CCc4ccccc4)c(=O)n(C[C@H]4CCCO4)c3n2)c1 : AC50 7.943 µM (rising, partial curve)
- CCCCCn1c(Sc2nc3ccccc3s2)nc2c1c(=O)[nH]c(=O)n2C : AC50 15.85 µM (rising, single point)
- N=C(N)S/C=C\C(=O)O : AC50 31.62 µM (falling, partial curve, poor fit)
- O=C1NCN(c2ccccc2)C12CCN(C[C@H]1COc3ccccc3O1)CC2 : AC50 1.585 µM (rising, full curve, poor fit)
- O=C(c1ccco1)N1CCC2(CC1)CCN(c1ccccn1)CC2 : AC50 10 µM (rising, partial curve)
- O=C(O)C1CCC(CNCc2cccnc2)CC1 (stereo not shown) : AC50 25.12 µM (rising, single point)
- CC[C@@H]1CN2CC[C@@H]1C[C@H]2[C@@H](O)c1ccnc2ccc(OC)cc12 : AC50 1 µM (falling, full curve)
- O=c1[nH]c2c(s1)C(c1ccco1)C1C3CCC(C3)C1S2 (stereo not shown) : AC50 1.995 µM (falling, full curve)
- Brc1ccccc1Cn1c(-c2cncs2)nc2ccccc21 : AC50 10 µM (falling, partial curve)
- CSCC[C@H](NC(=O)OC(C)(C)C)c1nnc(SCC=C(C)C)o1 : AC50 1.259 µM (rising, partial curve)

The results are deposited in PubChem (AID912; NCATS, 2007).